No constants are given. Whether binding was seen depends on the method and setting. Some results given as binding are weak or reduced against the parent protein; the word gives no strength.
Target: integrin αvβ3 (human (endogenous in HUVECs)) (UniProt P06756+P05106)
Assay: cellular uptake of fluorescent nanoparticles, confocal microscopy; HUVECs activated with 500 ng/mL LPS for 24 h; with or without 2 h pre-incubation with 5 μM cilengitide or 1 μg/mL c(RGDfC) peptide; then 50 μg/mL DIR@T/R NPs for 2 h, washed with PBS, fixed; DIR fluorescence by CLSM; only the binder purified

Sequences of proteins named here, by UniProt entry; tags and fusion partners are left off. A change or cut given only in a name is not applied to a line headed by its entry.
UniProt P06756: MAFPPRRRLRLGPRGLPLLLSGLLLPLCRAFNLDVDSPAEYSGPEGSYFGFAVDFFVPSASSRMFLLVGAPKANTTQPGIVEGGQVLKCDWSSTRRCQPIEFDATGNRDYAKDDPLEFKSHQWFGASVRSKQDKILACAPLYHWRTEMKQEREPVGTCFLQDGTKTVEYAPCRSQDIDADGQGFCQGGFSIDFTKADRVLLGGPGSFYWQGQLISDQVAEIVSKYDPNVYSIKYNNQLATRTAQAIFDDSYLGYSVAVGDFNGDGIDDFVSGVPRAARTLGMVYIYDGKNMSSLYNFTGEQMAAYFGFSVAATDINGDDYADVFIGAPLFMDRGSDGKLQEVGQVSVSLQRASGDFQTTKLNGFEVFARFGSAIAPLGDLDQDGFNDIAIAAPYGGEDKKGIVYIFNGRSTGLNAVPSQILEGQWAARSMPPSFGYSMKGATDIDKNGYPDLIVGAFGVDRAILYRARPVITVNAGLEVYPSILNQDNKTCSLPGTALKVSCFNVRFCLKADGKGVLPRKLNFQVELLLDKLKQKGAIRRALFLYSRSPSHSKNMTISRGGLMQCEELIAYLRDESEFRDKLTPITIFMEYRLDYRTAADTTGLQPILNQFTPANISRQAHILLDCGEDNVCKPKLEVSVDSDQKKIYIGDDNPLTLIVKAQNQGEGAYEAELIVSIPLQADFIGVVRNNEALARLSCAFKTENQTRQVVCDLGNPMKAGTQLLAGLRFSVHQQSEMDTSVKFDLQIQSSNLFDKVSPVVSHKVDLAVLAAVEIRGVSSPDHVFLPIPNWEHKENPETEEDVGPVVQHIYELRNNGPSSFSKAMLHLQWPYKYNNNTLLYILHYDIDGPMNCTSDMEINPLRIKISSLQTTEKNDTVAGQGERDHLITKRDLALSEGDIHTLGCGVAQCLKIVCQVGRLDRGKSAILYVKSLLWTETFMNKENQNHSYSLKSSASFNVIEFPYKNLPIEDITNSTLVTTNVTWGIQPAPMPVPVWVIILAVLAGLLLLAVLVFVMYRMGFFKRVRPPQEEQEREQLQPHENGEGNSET
UniProt P05106: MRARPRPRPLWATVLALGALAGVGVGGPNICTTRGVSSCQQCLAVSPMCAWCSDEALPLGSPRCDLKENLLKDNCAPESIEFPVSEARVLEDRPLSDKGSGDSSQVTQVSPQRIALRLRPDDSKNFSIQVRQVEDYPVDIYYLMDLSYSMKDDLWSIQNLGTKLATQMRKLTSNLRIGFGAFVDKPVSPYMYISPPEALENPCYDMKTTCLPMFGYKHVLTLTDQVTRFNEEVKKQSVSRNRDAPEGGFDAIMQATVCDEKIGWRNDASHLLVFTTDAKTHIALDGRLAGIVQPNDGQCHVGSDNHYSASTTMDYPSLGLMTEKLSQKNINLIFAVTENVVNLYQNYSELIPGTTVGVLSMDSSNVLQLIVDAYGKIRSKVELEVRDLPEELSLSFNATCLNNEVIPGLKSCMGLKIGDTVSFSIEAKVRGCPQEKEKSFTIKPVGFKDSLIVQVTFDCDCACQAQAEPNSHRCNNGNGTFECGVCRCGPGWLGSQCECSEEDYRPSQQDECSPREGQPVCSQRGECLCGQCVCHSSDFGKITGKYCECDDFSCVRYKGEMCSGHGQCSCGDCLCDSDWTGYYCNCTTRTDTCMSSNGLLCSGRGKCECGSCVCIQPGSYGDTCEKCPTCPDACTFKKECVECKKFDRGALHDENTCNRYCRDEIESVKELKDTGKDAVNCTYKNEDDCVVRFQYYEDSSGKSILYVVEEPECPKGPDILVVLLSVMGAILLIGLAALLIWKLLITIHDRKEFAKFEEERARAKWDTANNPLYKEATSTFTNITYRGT

- binding: binds
Binder: RGDFC (cyclic peptide, printed as c(RGDfC)) [c(RGDfC) peptide, free]

Source: publication PMC9169363
